The target in the test is Hemagglutinin (HA) of human influenza A virus A/PR/8/34 (H1N1サブタイプ) (human influenza A virus A/PR/8/34 (H1N1)) (UniProt P03452). Kind of test: summary of reference example A-3 (staining of infected MDCK cells).

The chains behind the UniProt entries cited, without tags or fusion partners. Residues count along the entry.
UniProt P03452, residues 18-565: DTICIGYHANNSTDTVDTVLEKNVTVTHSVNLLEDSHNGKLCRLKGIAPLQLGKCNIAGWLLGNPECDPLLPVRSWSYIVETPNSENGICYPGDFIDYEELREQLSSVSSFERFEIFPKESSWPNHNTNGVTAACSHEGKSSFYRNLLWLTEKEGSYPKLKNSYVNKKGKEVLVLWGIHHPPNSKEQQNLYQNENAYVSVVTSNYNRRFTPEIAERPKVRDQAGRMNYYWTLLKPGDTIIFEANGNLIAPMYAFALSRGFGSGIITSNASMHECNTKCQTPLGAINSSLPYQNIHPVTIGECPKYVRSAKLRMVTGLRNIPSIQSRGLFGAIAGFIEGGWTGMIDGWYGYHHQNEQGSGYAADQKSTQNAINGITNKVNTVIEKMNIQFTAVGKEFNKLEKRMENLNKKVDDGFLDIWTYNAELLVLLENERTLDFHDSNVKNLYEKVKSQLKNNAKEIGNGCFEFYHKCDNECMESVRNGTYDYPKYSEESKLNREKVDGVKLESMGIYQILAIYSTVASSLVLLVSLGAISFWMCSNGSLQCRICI

These are yes or no findings as the source states them, for the method shown. Some results given as binding are weak or reduced against the parent protein; the word gives no strength.

B1: モノクローナル抗体C179 (monoclonal antibody C179) (antibody, V domains shown)
VH: EVKLVESGGGLVQPGGSLRLSCGTSGFTLTDDYMTWVRQPPGKALEWLGFIRDRANGYTTEYSASVKGRFTISRDNSQSIVYLQMNTLRVEDSATYYCARPKGYFPYAMDYWGQGT
VL: DIQMTQSPASQSASLGESVTITCLASQTIGTWLAWYQQKPGKSPQLLIYAATSLADGVPSRFSGSGSGTKFSFKISSLQAEDFVSYYCQQLYSTPWTF
Take B1: the binding result is “binds”.

(Values after JPH07265077A.)
